Patent US20180201654A1, “PEPTIDE INHIBITORS OF HAUSP DEUBIQUITINASE” (priority 2012, published 2018)
These are yes or no findings as the source states them, for the method shown. Binding seen in cells or lysates may run through a third protein. Some results given as binding are weak or reduced against the parent protein; the word gives no strength.

Protein sequences, listed by entry. Tags and fused reporters are not part of them. Lines headed by an entry give the natural chain unless they say otherwise; changes in a name come on top. Residues count along the entry.
UniProt Q93009, residues 62-1102: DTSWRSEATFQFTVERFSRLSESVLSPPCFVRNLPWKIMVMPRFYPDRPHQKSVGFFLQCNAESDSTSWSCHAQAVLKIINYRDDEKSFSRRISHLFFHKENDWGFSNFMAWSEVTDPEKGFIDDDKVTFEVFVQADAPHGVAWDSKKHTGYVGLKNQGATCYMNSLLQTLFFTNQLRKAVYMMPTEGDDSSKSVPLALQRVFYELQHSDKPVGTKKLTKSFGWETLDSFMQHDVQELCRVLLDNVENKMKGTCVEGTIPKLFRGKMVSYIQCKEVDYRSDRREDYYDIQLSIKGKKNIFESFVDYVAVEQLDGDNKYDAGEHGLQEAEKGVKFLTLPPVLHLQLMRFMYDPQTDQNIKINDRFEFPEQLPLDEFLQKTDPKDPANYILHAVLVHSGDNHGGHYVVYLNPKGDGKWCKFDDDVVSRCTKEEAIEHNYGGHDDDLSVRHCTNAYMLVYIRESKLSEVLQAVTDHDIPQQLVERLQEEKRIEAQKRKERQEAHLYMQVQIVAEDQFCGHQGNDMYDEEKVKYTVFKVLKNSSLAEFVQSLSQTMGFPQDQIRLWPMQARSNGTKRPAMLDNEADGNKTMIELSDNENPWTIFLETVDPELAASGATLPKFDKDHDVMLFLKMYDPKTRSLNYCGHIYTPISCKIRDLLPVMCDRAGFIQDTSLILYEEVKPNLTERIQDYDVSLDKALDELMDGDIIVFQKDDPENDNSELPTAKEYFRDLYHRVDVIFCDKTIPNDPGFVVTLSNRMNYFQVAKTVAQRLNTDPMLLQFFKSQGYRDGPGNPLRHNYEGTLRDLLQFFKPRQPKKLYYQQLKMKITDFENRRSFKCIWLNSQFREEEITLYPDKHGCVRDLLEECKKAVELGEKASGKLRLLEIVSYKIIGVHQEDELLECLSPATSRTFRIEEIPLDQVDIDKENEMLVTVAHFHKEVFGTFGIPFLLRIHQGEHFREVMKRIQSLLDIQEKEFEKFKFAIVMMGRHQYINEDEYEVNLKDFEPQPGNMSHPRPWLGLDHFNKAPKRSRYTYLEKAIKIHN
UniProt Q2HR73: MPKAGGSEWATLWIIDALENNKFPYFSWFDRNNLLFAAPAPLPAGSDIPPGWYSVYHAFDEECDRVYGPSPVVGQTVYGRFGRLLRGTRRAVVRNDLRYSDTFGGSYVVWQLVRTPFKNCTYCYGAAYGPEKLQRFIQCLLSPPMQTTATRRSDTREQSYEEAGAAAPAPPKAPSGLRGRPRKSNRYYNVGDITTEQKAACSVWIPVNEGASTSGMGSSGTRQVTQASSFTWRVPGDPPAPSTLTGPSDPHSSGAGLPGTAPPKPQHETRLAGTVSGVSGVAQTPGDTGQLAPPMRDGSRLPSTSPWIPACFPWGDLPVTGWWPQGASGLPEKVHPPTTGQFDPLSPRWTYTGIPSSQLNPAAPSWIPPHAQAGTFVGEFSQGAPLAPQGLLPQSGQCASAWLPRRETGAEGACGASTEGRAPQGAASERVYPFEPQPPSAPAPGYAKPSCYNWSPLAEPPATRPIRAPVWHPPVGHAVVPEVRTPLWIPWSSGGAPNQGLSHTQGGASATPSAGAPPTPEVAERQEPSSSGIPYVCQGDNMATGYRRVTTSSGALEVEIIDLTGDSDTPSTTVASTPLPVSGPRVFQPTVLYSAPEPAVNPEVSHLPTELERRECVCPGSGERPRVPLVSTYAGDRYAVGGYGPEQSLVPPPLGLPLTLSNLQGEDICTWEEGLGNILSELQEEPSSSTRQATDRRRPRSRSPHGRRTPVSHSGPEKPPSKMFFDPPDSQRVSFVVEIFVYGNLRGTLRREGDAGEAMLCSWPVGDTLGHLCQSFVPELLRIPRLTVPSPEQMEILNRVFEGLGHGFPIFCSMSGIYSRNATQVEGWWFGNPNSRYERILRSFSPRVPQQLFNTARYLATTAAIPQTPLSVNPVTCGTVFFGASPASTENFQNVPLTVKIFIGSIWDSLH

Biological target: Flag/HAUSP 62-1108 (human) (UniProt Q93009)
Test: co-immunoprecipitation from transfected 293T cells, IP: V5, IB: Flag

vIRF4 (Kaposi's-sarcoma-associated-herpesvirus vIRF4), full length wild type (from UniProt Q2HR73 1-911)
binding: binds
